Experimental data taken from the supplement of paper PMC4604168 (melanoma cell lines).
The list shows a part of the results. Repeats are few or missing, and single values can be far off.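 The apoptosis fraction was the count of cleaved-PARP antibody-stained nuclei relative to all DNA-stained nuclei, imaged in 1,536-well plates. Screening doses were set so most cells survived, and baseline and induced cleaved-PARP levels vary greatly across cell lines.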

system: WM115; assay: cleaved PARP positive nuclei fraction relative to DMSO control; melanoma cells; higher = more apoptosis; conditions: library dose: low library concentration; 72 h

| SMILES | cleaved PARP positive nuclei fraction [%] |
| --- | --- |
| CC[C@]1(O)C[C@H]2CN(CCc3c([nH]c4ccccc34)[C@@](C(=O)OC)(c3cc4c(cc3OC)N(C=O)[C@H]3[C@@](O)(C(=O)OC)[C@H](OC(C)=O)[C@]5(CC)C=CCN6CC[C@]43[C@@H]65)C2)C1 [vincristine] + O=C(Nc1ccccc1)c1cc([N+](=O)[O-])ccc1Cl [GW9662] (first compound 0.0001 µM, partner dose 2 µM) | 1140 |
| O=C(Nc1cc(C(F)(F)F)cc(C(F)(F)F)c1)c1cc(Cl)ccc1O + Cn1cnc2c(F)c(Nc3ccc(Br)cc3Cl)c(C(=O)NOCCO)cc21 [selumetinib] (first compound 0.016 µM, partner dose 0.015 µM) | 66.7 |
| O=C(/C=C/c1cccnc1)NCCCCC1CCN(C(=O)c2ccccc2)CC1 + COc1cc2c(Oc3ccc4[nH]c(C)cc4c3F)ncnc2cc1OCCCN1CCCC1 [cediranib] (first compound 0.01 µM, partner dose 0.4 µM) | 87.4 |
| CCCCCCCCCCCCCCCCCCOP(=O)([O-])OC1CC[N+](C)(C)CC1 [Perifosine] + CNC(=O)c1cc(Oc2ccc(NC(=O)Nc3ccc(Cl)c(C(F)(F)F)c3)cc2)ccn1 [sorafenib] (first compound 0.4 µM, partner dose 0.4 µM) | 196 |
| CCCCCCCCCCCCCCCCCCOP(=O)([O-])OC1CC[N+](C)(C)CC1 [Perifosine] + OCCn1cc(-c2cnc3nnn(Cc4ccc5ncccc5c4)c3n2)cn1 [PF04217903] (first compound 0.4 µM, partner dose 1 µM) | 23.5 |
| CC[C@]1(O)C[C@H]2CN(CCc3c([nH]c4ccccc34)[C@@](C(=O)OC)(c3cc4c(cc3OC)N(C=O)[C@H]3[C@@](O)(C(=O)OC)[C@H](OC(C)=O)[C@]5(CC)C=CCN6CC[C@]43[C@@H]65)C2)C1 [vincristine] + c1cc(-c2cnn3cc(-c4ccc(OCCN5CCCCC5)cc4)cnc23)ccn1 [Dorsomorphin] (first compound 0.0001 µM, partner dose 0.4 µM) | 1410 |
| O=C(Nc1cc(C(F)(F)F)cc(C(F)(F)F)c1)c1cc(Cl)ccc1O + CS(=O)(=O)c1ccc(C(=O)Nc2ccc(Cl)c(-c3ccccn3)c2)c(Cl)c1 [vismodegib] (first compound 0.016 µM, partner dose 1 µM) | 216 |
| N#CC[C@H](C1CCCC1)n1cc(-c2ncnc3[nH]ccc23)cn1 [ruxolitinib] + CN1CCN(c2ccc3nc(-c4c(N)c5c(F)cccc5[nH]c4=O)[nH]c3c2)CC1 [Dovitinib] (first compound 1 µM, partner dose 0.1 µM) | 77.1 |
| CCCCCCCCCCCCCCCCCCOP(=O)([O-])OC1CC[N+](C)(C)CC1 [Perifosine] + Nc1ncn([C@H]2C[C@H](O)[C@@H](CO)O2)c(=O)n1 [decitabine] (first compound 0.4 µM, partner dose 0.1 µM) | 73.7 |
| O=c1[nH]nc(Sc2ncc([N+](=O)[O-])s2)n1-c1ccc2c(c1)OCCO2 + O=S(=O)(c1ccccc1)N(CC(F)(F)F)c1ccc(C(O)(C(F)(F)F)C(F)(F)F)cc1 [T0901317] (first compound 0.2 µM, partner dose 1.4 µM) | 159 |
| Cc1cc(Nc2cc(N3CCN(C)CC3)nc(Sc3ccc(NC(=O)C4CC4)cc3)n2)n[nH]1 [Tozasertib] + N#Cc1c(O)c2c(-c3ccc(-c4ccccc4O)cc3)csc2[nH]c1=O [A769662] (first compound 0.006 µM, partner dose 2 µM) | 105 |
| Cc1cn(-c2cc(NC(=O)c3ccc(C)c(Nc4nccc(-c5cccnc5)n4)c3)cc(C(F)(F)F)c2)cn1 [nilotinib] + CCCCCCCCCCCC1=C(O)C(=O)C=C(O)C1=O [Embelin] (first compound 0.2 µM, partner dose 1.2 µM) | 83.5 |
| O=C(Nc1cc(C(F)(F)F)cc(C(F)(F)F)c1)c1cc(Cl)ccc1O + NC(=O)c1ccc(N(C(N)=O)c2c(F)cccc2F)nc1-c1ccc(F)cc1F [VX702] (first compound 0.016 µM, partner dose 0.4 µM) | 106 |
| CC[C@]1(O)C[C@H]2CN(CCc3c([nH]c4ccccc34)[C@@](C(=O)OC)(c3cc4c(cc3OC)N(C=O)[C@H]3[C@@](O)(C(=O)OC)[C@H](OC(C)=O)[C@]5(CC)C=CCN6CC[C@]43[C@@H]65)C2)C1 [vincristine] + COc1cc2ncnc(Nc3ccc(Oc4ccccc4)cc3)c2cc1OC [SrcI1] (first compound 0.0001 µM, partner dose 2 µM) | 3450 |

In another format: entries from further up.
SMILES | cleaved PARP positive nuclei fraction [%]
CC[C@]1(O)C[C@H]2CN(CCc3c([nH]c4ccccc34)[C@@](C(=O)OC)(c3cc4c(cc3OC)N(C=O)[C@H]3[C@@](O)(C(=O)OC)[C@H](OC(C)=O)[C@]5(CC)C=CCN6CC[C@]43[C@@H]65)C2)C1 [vincristine] + O=C(Nc1ccccc1)c1cc([N+](=O)[O-])ccc1Cl [GW9662] (first compound 0.0001 µM, partner dose 2 µM) | 1140
O=C(Nc1cc(C(F)(F)F)cc(C(F)(F)F)c1)c1cc(Cl)ccc1O + Cn1cnc2c(F)c(Nc3ccc(Br)cc3Cl)c(C(=O)NOCCO)cc21 [selumetinib] (first compound 0.016 µM, partner dose 0.015 µM) | 66.7
O=C(/C=C/c1cccnc1)NCCCCC1CCN(C(=O)c2ccccc2)CC1 + COc1cc2c(Oc3ccc4[nH]c(C)cc4c3F)ncnc2cc1OCCCN1CCCC1 [cediranib] (first compound 0.01 µM, partner dose 0.4 µM) | 87.4
